PubChem BioAssay AID1224830 – NIAID – 2016

Purpose: 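Regulators of TLR4 signalling towards TNF-alpha in macrophage-like cells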 (primary screen)
Cell system: human THP-1 monocytic leukaemia cells, TNF dual-luciferase reporter clone, PMA-differentiated to macrophage-like cells
Reagents: siRNA pool against human genes, 50 nM
Time to read-out: LPS for 4 h, given about 3 days after siRNA transfection
Treatment: bacterial LPS (TLR4 ligand), 10 ng/ml
Read-out: 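Ratio of firefly to renilla light, scaled to the plate median and expressed as a robust z-score per replicate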
Scale: TNF reporter robust z-score: higher = stronger TNF reporter response to LPS
Hit rule: 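Each well counts as active if its z-score is over 2.8 or under -1.5; controls are left without a call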
In all, the deposit lists about 18,000 reagents; shown is a random part of them. About 2,900 of them (16%) were called active. 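Calls are made per well; low scores hint the gene aids the LPS response, high scores that it dampens it.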 Repeated entries: four replicate wells of each siRNA pool.

gene knocked down	TNF reporter robust z-score	Call
R3HDM2 (R3H domain containing 2)	-1.53	active
R3HDM2 (R3H domain containing 2)	-0.56	inactive
R3HDM2 (R3H domain containing 2)	-1	inactive
R3HDM2 (R3H domain containing 2)	-1.26	inactive
DNAAF2 (dynein axonemal assembly factor 2)	-0.1	inactive
DNAAF2 (dynein axonemal assembly factor 2)	0.17	inactive
DNAAF2 (dynein axonemal assembly factor 2)	-0.19	inactive
DNAAF2 (dynein axonemal assembly factor 2)	-0.37	inactive
MS4A8 (membrane spanning 4-domains A8)	-0.09	inactive
MS4A8 (membrane spanning 4-domains A8)	0.16	inactive
MS4A8 (membrane spanning 4-domains A8)	-0.1	inactive
MS4A8 (membrane spanning 4-domains A8)	-0.11	inactive
FOXRED2 (FAD dependent oxidoreductase domain containing 2)	0.78	inactive
FOXRED2 (FAD dependent oxidoreductase domain containing 2)	-0.56	inactive
FOXRED2 (FAD dependent oxidoreductase domain containing 2)	0.99	inactive
FOXRED2 (FAD dependent oxidoreductase domain containing 2)	-0.01	inactive
BATF3 (basic leucine zipper ATF-like transcription factor 3)	-0.65	inactive
BATF3 (basic leucine zipper ATF-like transcription factor 3)	-0.48	inactive
BATF3 (basic leucine zipper ATF-like transcription factor 3)	0	inactive
BATF3 (basic leucine zipper ATF-like transcription factor 3)	-0.79	inactive
SLC25A46	-1.52	active
SLC25A46	0.01	inactive
SLC25A46	-1.07	inactive
SLC25A46	0.18	inactive
TWF1 (twinfilin actin binding protein 1)	-0.16	inactive
TWF1 (twinfilin actin binding protein 1)	0.7	inactive
TWF1 (twinfilin actin binding protein 1)	0.38	inactive
TWF1 (twinfilin actin binding protein 1)	0.78	inactive
TTC21B (tetratricopeptide repeat domain 21B)	-1.08	inactive
TTC21B (tetratricopeptide repeat domain 21B)	-0.58	inactive
TTC21B (tetratricopeptide repeat domain 21B)	0.1	inactive
TTC21B (tetratricopeptide repeat domain 21B)	-0.32	inactive
KRT40 (keratin 40)	0.14	inactive
KRT40 (keratin 40)	0.03	inactive
KRT40 (keratin 40)	0.32	inactive
KRT40 (keratin 40)	-1.01	inactive
CFAP263 (cilia and flagella associated protein 263)	-0.96	inactive
CFAP263 (cilia and flagella associated protein 263)	-0.37	inactive
CFAP263 (cilia and flagella associated protein 263)	0.19	inactive
CFAP263 (cilia and flagella associated protein 263)	0.05	inactive
BUB3 (BUB3 mitotic checkpoint protein)	5.46	active
BUB3 (BUB3 mitotic checkpoint protein)	6.46	active
BUB3 (BUB3 mitotic checkpoint protein)	7.62	active
BUB3 (BUB3 mitotic checkpoint protein)	3.59	active
ZNF429 (zinc finger protein 429)	-0.07	inactive
ZNF429 (zinc finger protein 429)	1.25	inactive
ZNF429 (zinc finger protein 429)	-0.96	inactive
ZNF429 (zinc finger protein 429)	-1.19	inactive

No new results follow: 17 of the entries above.
gene knocked down	TNF reporter robust z-score	Call
TTC21B (tetratricopeptide repeat domain 21B)	-0.58	inactive
TTC21B (tetratricopeptide repeat domain 21B)	0.1	inactive
TTC21B (tetratricopeptide repeat domain 21B)	-0.32	inactive
KRT40 (keratin 40)	0.14	inactive
KRT40 (keratin 40)	0.03	inactive
KRT40 (keratin 40)	0.32	inactive
KRT40 (keratin 40)	-1.01	inactive
CFAP263 (cilia and flagella associated protein 263)	-0.96	inactive
CFAP263 (cilia and flagella associated protein 263)	-0.37	inactive
CFAP263 (cilia and flagella associated protein 263)	0.19	inactive
CFAP263 (cilia and flagella associated protein 263)	0.05	inactive
BUB3 (BUB3 mitotic checkpoint protein)	5.46	active
BUB3 (BUB3 mitotic checkpoint protein)	6.46	active
BUB3 (BUB3 mitotic checkpoint protein)	7.62	active
BUB3 (BUB3 mitotic checkpoint protein)	3.59	active
ZNF429 (zinc finger protein 429)	-0.07	inactive
ZNF429 (zinc finger protein 429)	1.25	inactive

Continued.
gene knocked down	TNF reporter robust z-score	Call
FRMPD2 (FERM and PDZ domain containing 2)	0.06	inactive
FRMPD2 (FERM and PDZ domain containing 2)	-0.07	inactive
FRMPD2 (FERM and PDZ domain containing 2)	0.23	inactive
FRMPD2 (FERM and PDZ domain containing 2)	0.51	inactive
EPG5 (ectopic P-granules 5 autophagy tethering factor)	-0.17	inactive
EPG5 (ectopic P-granules 5 autophagy tethering factor)	0.87	inactive
EPG5 (ectopic P-granules 5 autophagy tethering factor)	0.32	inactive
PLEK2 (pleckstrin 2)	-1.2	inactive
PLEK2 (pleckstrin 2)	-1.15	inactive
PLEK2 (pleckstrin 2)	-0.44	inactive
PLEK2 (pleckstrin 2)	0.03	inactive
CASTOR3P (CASTOR family member 3, pseudogene)	-0.82	inactive
CASTOR3P (CASTOR family member 3, pseudogene)	-1.01	inactive
CASTOR3P (CASTOR family member 3, pseudogene)	-0.09	inactive
CASTOR3P (CASTOR family member 3, pseudogene)	0.12	inactive
RGPD1 (RANBP2 like and GRIP domain containing 1)	-0.41	inactive
RGPD1 (RANBP2 like and GRIP domain containing 1)	-0.58	inactive
RGPD1 (RANBP2 like and GRIP domain containing 1)	-0.32	inactive
RGPD1 (RANBP2 like and GRIP domain containing 1)	-0.52	inactive
SPACDR (sperm acrosome developmental regulator)	0.28	inactive
SPACDR (sperm acrosome developmental regulator)	0.62	inactive
SPACDR (sperm acrosome developmental regulator)	1.36	inactive
SPACDR (sperm acrosome developmental regulator)	0.12	inactive
ABCC9 (ATP binding cassette subfamily C member 9)	-0.3	inactive
ABCC9 (ATP binding cassette subfamily C member 9)	0.28	inactive
ABCC9 (ATP binding cassette subfamily C member 9)	-1.14	inactive
ABCC9 (ATP binding cassette subfamily C member 9)	-0.12	inactive
PNP (purine nucleoside phosphorylase)	4.25	active
PNP (purine nucleoside phosphorylase)	2.38	inactive
PNP (purine nucleoside phosphorylase)	3.9	active
PNP (purine nucleoside phosphorylase)	1.52	inactive
SLF1 (SMC5/6 complex localization factor 1)	-0.81	inactive
SLF1 (SMC5/6 complex localization factor 1)	-1.47	inactive
SLF1 (SMC5/6 complex localization factor 1)	-0.5	inactive
SLF1 (SMC5/6 complex localization factor 1)	-0.85	inactive
CD6 (CD6 molecule)	-0.61	inactive
CD6 (CD6 molecule)	-0.43	inactive
CD6 (CD6 molecule)	-0.24	inactive
STAM2 (signal transducing adaptor molecule 2)	-0.35	inactive
STAM2 (signal transducing adaptor molecule 2)	0.19	inactive
STAM2 (signal transducing adaptor molecule 2)	-0.03	inactive
STAM2 (signal transducing adaptor molecule 2)	-0.11	inactive
LINC00174 (long independently transcribed non-coding RNA 174)	-1.26	inactive
LINC00174 (long independently transcribed non-coding RNA 174)	-1	inactive
LINC00174 (long independently transcribed non-coding RNA 174)	-1.37	inactive
LINC00174 (long independently transcribed non-coding RNA 174)	-1.27	inactive
PLEKHA1 (pleckstrin homology domain containing A1)	-0.91	inactive
PLEKHA1 (pleckstrin homology domain containing A1)	-0.35	inactive
PLEKHA1 (pleckstrin homology domain containing A1)	-0.7	inactive
PLEKHA1 (pleckstrin homology domain containing A1)	-1.15	inactive
RAB3D (RAB3D, member RAS oncogene family)	0.61	inactive
RAB3D (RAB3D, member RAS oncogene family)	1.51	inactive
RAB3D (RAB3D, member RAS oncogene family)	1.5	inactive
RAB3D (RAB3D, member RAS oncogene family)	0.52	inactive
DRC3 (dynein regulatory complex subunit 3)	0.71	inactive
DRC3 (dynein regulatory complex subunit 3)	1.16	inactive
DRC3 (dynein regulatory complex subunit 3)	1.46	inactive
DRC3 (dynein regulatory complex subunit 3)	0.99	inactive
SNX21 (sorting nexin family member 21)	-0.94	inactive
SNX21 (sorting nexin family member 21)	-0.97	inactive
SNX21 (sorting nexin family member 21)	-1.39	inactive
SNX21 (sorting nexin family member 21)	-1.22	inactive
